Measurements published in paper PMC8664295.
No constants are given. Whether binding was seen depends on the method and setting. Binding seen in cells or lysates may run through a third protein. Some results given as binding are weak or reduced against the parent protein; the word gives no strength.

The chains behind the UniProt entries cited, without tags or fusion partners. Residues count along the entry.
UniProt P08151: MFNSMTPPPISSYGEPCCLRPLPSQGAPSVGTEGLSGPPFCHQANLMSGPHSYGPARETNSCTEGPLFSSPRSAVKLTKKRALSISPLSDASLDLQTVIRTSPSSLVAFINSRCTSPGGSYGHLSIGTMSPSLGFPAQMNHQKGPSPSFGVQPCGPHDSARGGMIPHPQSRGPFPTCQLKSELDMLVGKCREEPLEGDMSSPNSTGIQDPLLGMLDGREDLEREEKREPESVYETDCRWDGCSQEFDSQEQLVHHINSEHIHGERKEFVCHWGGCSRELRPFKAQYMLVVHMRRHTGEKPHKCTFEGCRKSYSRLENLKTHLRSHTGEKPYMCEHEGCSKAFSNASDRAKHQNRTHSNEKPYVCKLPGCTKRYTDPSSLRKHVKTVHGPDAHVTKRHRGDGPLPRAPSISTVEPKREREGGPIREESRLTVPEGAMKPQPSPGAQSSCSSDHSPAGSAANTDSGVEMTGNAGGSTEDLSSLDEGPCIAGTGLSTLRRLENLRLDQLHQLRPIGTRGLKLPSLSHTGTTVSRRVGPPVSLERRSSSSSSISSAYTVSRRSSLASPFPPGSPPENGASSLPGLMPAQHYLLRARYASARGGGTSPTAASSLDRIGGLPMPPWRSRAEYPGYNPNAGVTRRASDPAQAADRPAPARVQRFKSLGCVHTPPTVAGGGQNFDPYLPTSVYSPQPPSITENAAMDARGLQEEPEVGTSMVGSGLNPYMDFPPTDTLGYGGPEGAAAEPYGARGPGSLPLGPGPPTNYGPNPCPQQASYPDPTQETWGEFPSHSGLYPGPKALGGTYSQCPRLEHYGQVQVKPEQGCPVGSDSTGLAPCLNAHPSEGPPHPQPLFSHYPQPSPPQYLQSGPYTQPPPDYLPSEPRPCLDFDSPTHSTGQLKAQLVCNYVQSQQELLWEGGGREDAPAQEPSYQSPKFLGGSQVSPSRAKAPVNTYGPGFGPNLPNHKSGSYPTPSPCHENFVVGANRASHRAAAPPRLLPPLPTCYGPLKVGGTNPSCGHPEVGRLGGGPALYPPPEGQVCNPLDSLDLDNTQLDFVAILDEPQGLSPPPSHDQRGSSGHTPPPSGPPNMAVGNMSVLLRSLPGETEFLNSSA
UniProt P46531, residues 1754-2555: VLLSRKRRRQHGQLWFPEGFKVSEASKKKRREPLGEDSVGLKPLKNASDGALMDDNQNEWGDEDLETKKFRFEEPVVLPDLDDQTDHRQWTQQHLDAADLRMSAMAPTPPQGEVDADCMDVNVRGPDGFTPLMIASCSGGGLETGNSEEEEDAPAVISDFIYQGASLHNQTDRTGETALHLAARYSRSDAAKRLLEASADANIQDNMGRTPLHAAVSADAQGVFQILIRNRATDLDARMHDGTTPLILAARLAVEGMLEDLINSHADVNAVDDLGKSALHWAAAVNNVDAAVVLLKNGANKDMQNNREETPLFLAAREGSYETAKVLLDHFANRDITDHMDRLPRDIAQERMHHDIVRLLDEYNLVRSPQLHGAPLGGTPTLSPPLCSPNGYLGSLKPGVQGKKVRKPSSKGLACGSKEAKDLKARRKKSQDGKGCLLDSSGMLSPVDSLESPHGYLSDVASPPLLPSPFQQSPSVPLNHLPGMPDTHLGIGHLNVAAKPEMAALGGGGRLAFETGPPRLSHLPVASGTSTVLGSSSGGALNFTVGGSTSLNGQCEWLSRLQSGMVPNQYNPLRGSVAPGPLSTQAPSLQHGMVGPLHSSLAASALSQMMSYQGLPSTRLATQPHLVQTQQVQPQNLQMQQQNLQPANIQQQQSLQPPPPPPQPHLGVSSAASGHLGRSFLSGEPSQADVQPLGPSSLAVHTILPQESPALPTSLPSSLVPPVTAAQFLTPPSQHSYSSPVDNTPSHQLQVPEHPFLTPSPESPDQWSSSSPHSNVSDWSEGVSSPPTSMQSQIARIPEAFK

Assays:
[1] = biological target: Flag-tagged GLI1 (hGLI1-Flag3x) (human) (UniProt P08151); experiment: co-IP; nuclear extracts of HCC1569 cells transfected with Flag-GLI1; immunoprecipitation with GLI1 antibody, immunoblot with NICD antibody; IgG control
[2] = biological target: GLI1 (glioma-associated oncogene homolog 1), endogenous nuclear (human (endogenous in TNBC cell lines)) (UniProt P08151); experiment: co-IP; endogenous proteins, nuclear extracts of AA-TNBC cells (MDA-MB-468, HCC1806, HCC1569); immunoprecipitation with GLI1 antibody and blot for NICD; reciprocal immunoprecipitation with NICD antibody and blot for GLI1 (MDA-MB-468, HCC1569)
[3] = biological target: Notch intracellular domain (NICD) of Notch1 (human (endogenous in TNBC cell lines)) (UniProt P46531); experiment: as above

binding [1]	binding [2]	binding [3]	Substance
binds	binds	–	Notch intracellular domain (NICD) of Notch1 (from UniProt P46531 1754-2555) (domain or fragment)
–	–	binds	GLI1 (glioma-associated oncogene homolog 1), endogenous nuclear (from UniProt P08151 1-1106)
